Patent US7193079B1 (Board of Trustees of Michigan State University, priority 2003, dated 2007)
For some assays here: At least one structure is not confirmed: it was looked up by name or label, or the drawing left a doubt. Some results were stated once for a whole list of compounds, not compound by compound.

The chains behind the UniProt entries cited, without tags or fusion partners.
UniProt O96017, whole entry: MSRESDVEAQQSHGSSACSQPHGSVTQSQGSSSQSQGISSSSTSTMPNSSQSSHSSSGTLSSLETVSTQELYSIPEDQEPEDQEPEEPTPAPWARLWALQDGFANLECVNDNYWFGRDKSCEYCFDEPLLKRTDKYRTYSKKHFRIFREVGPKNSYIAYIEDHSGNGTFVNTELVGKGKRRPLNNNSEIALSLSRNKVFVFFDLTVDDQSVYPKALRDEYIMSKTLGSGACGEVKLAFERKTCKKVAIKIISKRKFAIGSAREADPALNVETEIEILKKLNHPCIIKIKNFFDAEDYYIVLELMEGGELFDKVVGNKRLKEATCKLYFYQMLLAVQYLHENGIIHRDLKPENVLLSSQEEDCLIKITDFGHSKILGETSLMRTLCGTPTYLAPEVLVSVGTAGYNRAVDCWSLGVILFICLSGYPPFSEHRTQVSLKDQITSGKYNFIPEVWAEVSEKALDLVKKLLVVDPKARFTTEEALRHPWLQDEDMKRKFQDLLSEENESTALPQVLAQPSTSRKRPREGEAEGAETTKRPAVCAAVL

Experiments:
CHK2 = molecular target: T1, CHK2 (Homo sapiens, UniProt O96017); conditions: natural products, general statement; cited from earlier work
T1 construct: purchased Upstate, UK (Kinase Profiler service)

[1] = system: transcription factor AP-1; test: Gel electrophoresis assay for DNA binding of transcription factor AP-1; format: cell-based

| SMILES | Inhibition of checkpoint kinase CHK2 (in words) (CHK2) | Inhibition of DNA binding of transcription factor AP-1 (in words) [1] |
| --- | --- | --- |
| NC1=NC(=O)/C(=C2\CCNC(=O)c3[nH]c(Br)cc32)N1 [Hymenialdisine 1, hymenialdisine, reference compound] | low micromolar concentrations |  |
| Cn1c2c(c3ccccc31)C(=C1N=C(N)NC1=O)CCNC2=O [Compound 3, 5-(2-amino-5-oxo-1,5-dihydro-imidazol-4-ylidene)-10-methyl-3,4,5,10-tetrahydro-2H-azepino[3,4-b]indol-1-one] |  | no significant inhibition of DNA binding |
